PubChem BioAssay AID1671195 | Yale University | 2021
The deposit covers about 22,000 reagents; below is a part drawn at random. About 1,510 of them (6.9%) count as active. 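Active includes knockdowns raising or lowering LDL uptake; positive z-scores mean more uptake, negative mean less.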 Unmarked entries are inactive.

- Assay: 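Genes whose knockdown alters LDL uptake in liver cancer cells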 (primary screen)
- Cell system: human Huh7 hepatoma cells
- Reagents: siRNA pool against human genes, 18 nM
- Timing: about 2 to 2.5 days of knockdown, then 8 h LDL uptake
- Conditions: DiI-labelled LDL at 30 µg/ml for 8 h, in lipoprotein-deficient serum medium
- Measurement: 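Per-cell DiI-LDL intensity by automated imaging; well means scaled to the plate median and given as a robust z-score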
- Reading the numbers: robust z-score: higher = more LDL uptake after knockdown
- Active means: 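a gene counts as active if at least two replicate z-scores exceed ±2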

gene | robust z-score, replicate 1 | robust z-score, replicate 2 | robust z-score, replicate 3
LOC442731 (retired record) | 0.921 | 1.56 | 0.549
AHCYL1 (adenosylhomocysteinase like 1) | -0.466 | -0.963 | -0.891
AVPI1 (arginine vasopressin induced 1) | 0.379 | 0.211 | 0.199
OR1L3 (olfactory receptor family 1 subfamily L member 3) | -0.729 | -1.23 | -2.8
KIF3B (kinesin family member 3B) | -0.125 | -0.42 | -1.48
TMTC1 (transmembrane O-mannosyltransferase targeting cadherins 1) | 0.883 | -1.42 | -1.73
LOC400714 (retired record) | -0.315 | -0.73 | 0.02
EME1 (essential meiotic structure-specific endonuclease 1) | -2.25 | -1.65 | -1.38
EP400 (E1A binding protein p400) | -1.64 | -1.4 | -1.68
CSTF3 (cleavage stimulation factor subunit 3) | -0.581 | 0.357 | -0.521
PRP4K (pre-mRNA processing factor kinase PRP4K) | -1.33 | -1.78 | -1.02
GBGT1 | -1.52 | 0.219 | -1.58
MGST1 (microsomal glutathione S-transferase 1) | 0.0353 | 0.0734 | 0.772
DUSP26 (dual specificity phosphatase 26) | 3.51 (active) | 4.18 | 3.49
VWC2 (von Willebrand factor C domain containing 2) | -0.223 | -0.0954 | -0.219
NEUID (neuronal identity associated lncRNA) | 1.25 | 0.258 | 0.407
HPD (4-hydroxyphenylpyruvate dioxygenase) | -0.463 | -0.556 | -0.055

Reagents listed above marked active, once more:
gene | robust z-score, replicate 1 | robust z-score, replicate 2 | robust z-score, replicate 3
DUSP26 (dual specificity phosphatase 26) | 3.51 (active) | 4.18 | 3.49

The listing continues:
gene | robust z-score, replicate 1 | robust z-score, replicate 2 | robust z-score, replicate 3
ULK4 (unc-51 like kinase 4) | -0.173 | -0.0109 | -0.851
OVGP1 (oviductal glycoprotein 1) | -0.147 | 0.00382 | 0.328
VCP (valosin containing protein) | 2.65 (active) | 1.73 | 3.08
ALOX5AP (arachidonate 5-lipoxygenase activating protein) | -0.503 | -0.271 | -1.26
RIT1 (Ras like without CAAX 1) | -0.531 | -1.53 | -1.54
ZBTB17 (zinc finger and BTB domain containing 17) | 0.515 | 0.0738 | -0.165
KRTAP3-1 (keratin associated protein 3-1) | -0.439 | 0.301 | -0.0237
LOC442050 (retired record) | 0.308 | -0.0301 | -0.288
ZNF785 (zinc finger protein 785) | -1.35 | -0.648 | -1.53
CCKAR (cholecystokinin A receptor) | -0.697 | -1.29 | -0.818
ZNF92 (zinc finger protein 92) | -1.49 | -1.23 | -0.726
CES4A (carboxylesterase 4A) | -1.05 | -1.07 | -0.966
C19orf84 (chromosome 19 open reading frame 84) | -0.301 | -0.496 | -0.363
ZFHX4 (zinc finger homeobox 4) | 0.386 | 0.321 | -0.188
LHFPL3 (LHFPL tetraspan subfamily member 3) | -1.06 | -0.706 | -0.779
BUD13 (BUD13 spliceosome associated protein) | -1.25 | -1.33 | -1.58
LRRC66 (leucine rich repeat containing 66) | -0.505 | -0.321 | -0.316
BARHL2 (BarH like homeobox 2) | 0.498 | 0.965 | 1.4
VEZF1 (vascular endothelial zinc finger 1) | -0.237 | -0.396 | -0.173
MANEA (mannosidase endo-alpha) | 0.277 | 0.174 | 0.549
THAP7-AS1 (THAP7 antisense RNA 1) | -0.309 | -0.279 | -0.0188
PACC1 (proton activated chloride channel 1) | 0.223 | -0.221 | -1.23
SAMD11 (sterile alpha motif domain containing 11) | 1.92 | 1.9 | 0.913
YY1AP1 (YY1 associated protein 1) | -0.031 | 0.0566 | -1.42
SUMO3 (small ubiquitin like modifier 3) | 1.49 | 2.2 | 1.06
HNRNPDL (heterogeneous nuclear ribonucleoprotein D like) | -0.473 | -0.418 | -0.908
KIRREL3-AS3 (KIRREL3 antisense RNA 3) | -0.801 | -0.662 | -0.56
APOB (apolipoprotein B) | 0.198 | 0.0406 | -0.726
FBLN7 (fibulin 7) | -0.0135 | -0.247 | -0.447
